Reference: US20210079096A1
These are yes or no findings as the source states them, for the method shown. Some results given as binding are weak or reduced against the parent protein; the word gives no strength.

T1: B7-H4 in FFPE sections of an invasive ductal carcinoma breast tumor (UniProt Q7Z7D3)
T1 sequence (looked up): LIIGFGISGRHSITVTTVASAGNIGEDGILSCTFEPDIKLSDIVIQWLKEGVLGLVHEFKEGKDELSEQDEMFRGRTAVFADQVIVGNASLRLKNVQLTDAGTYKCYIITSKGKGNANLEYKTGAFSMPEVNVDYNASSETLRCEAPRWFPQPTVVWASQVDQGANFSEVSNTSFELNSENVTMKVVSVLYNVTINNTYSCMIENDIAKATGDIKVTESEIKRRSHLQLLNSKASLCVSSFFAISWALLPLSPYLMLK


Target: T1, B7-H4 in FFPE sections of an invasive ductal carcinoma breast tumor
Experiment: IHC

| binding | Binder |
| --- | --- |
| binds | M6 (antibody, V domains shown) VH: QVTLKESGPGILQPSQTLSLTCSFSGFSLSTYGLGVGWIRQPSGKGLDWLANIWWNDDKYYNSALKSRLTISKDTSNNQVFLKISSVDTADTGTYYCAQVDGYYWYFDVWGAGTTVTVSS VL: DVLMTQTPLSLPVSLGDQASISCRSSQSIVHSNRNTYLEWYLQKPGQSPKLLIYNVSNRFSGVPDRFSGSGSGTDFTLKISRVEAEDLGVYYCFQGSHVPLTFGAGTKLELK |
| binds | M15 (antibody, V domains shown) VH: QVTLKESGPGILQSSQTLSLTCSFSGFSLSTYGLGVGWIRQPSGKGLDWLANIWWNDDKYYNSALKSRLTISKDTSNNQVFLKISSVDTADTGTYYCAQVDGYYWYFDVWGAGTTVTVSS VL: DVLMTQTPLSLPVSLGDQASISCRSSQSIVHSNRNTYLEWYLQKPGQSPKLLIYNVSNRFSGVPDRFSGSGSGTDFTLKISRVEAEDLGVYYCFQGSHVPLTFGAGTKLELK |
| binds | M11 (antibody, V domains shown) VH: QVTLKESGPGILQPSQTLSLTCSLSGFSLSTYGLGVGWIRQPSGKGLGWLANIWWNDDKYYNSALKSRLTISKDTSNNQVFLKISSVDTADTGTYYCAQVDGYYWYFDVWGAGTTVTVSS VL: DVLMTQTPLSLPVSLGDQASISCRSSQSIVHSNRNTYLEWYLQKPGQSPKLLIYNVSNRFSGVPDRFSGSGSGTDFTLKISRVEAEDLGVYYCFQGSHVPLTFGAGTKLELK |
